Laboratory results from publication PMC7288537.
No constants are given. Whether binding was seen depends on the method and setting. In cells and extracts the contact can be indirect. Some binding calls cover weakened binding; strength is not graded here.

The chains behind the UniProt entries cited, without tags or fusion partners.
UniProt O95863: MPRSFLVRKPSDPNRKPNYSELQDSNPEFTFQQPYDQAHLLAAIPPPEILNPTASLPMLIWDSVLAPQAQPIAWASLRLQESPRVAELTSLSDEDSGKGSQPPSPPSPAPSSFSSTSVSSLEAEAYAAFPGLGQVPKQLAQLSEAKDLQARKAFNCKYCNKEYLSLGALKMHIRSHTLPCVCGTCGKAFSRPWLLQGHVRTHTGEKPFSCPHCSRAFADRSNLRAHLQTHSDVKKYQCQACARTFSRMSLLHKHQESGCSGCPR

Biological target: Snail1 protein, endogenous in A549 and H322 cells (human (endogenous in A549 and H322)) (UniProt O95863)
Experiment: co-IP; cell lysate (RIPA buffer) incubated with antibody-conjugated magnetic beads for 1 h at room temperature, eluate blotted; Fig. 5g A549 cells, Fig. 5h forward and reverse Co-IP; precipitating antibodies not named

| binding | Binder |
| --- | --- |
| binds | Tripartite motif-containing protein 2 (TRIM2), endogenous in A549 cells (protein, UniProt Q9C040 1-744) MASEGTNIPSPVVRQIDKQFLICSICLERYKNPKVLPCLHTFCERCLQNYIPAHSLTLSCPVCRQTSILPEKGVAALQNNFFITNLMDVLQRTPGSNAEESSILETVTAVAAGKPLSCPNHDGNVMEFYCQSCETAMCRECTEGEHAEHPTVPLKDVVEQHKASLQVQLDAVNKRLPEIDSALQFISEIIHQLTNQKASIVDDIHSTFDELQKTLNVRKSVLLMELEVNYGLKHKVLQSQLDTLLQGQESIKSCSNFTAQALNHGTETEVLLVKKQMSEKLNELADQDFPLHPRENDQLDFIVETEGLKKSIHNLGTILTTNAVASETVATGEGLRQTIIGQPMSVTITTKDKDGELCKTGNAYLTAELSTPDGSVADGEILDNKNGTYEFLYTVQKEGDFTLSLRLYDQHIRGSPFKLKVIRSADVSPTTEGVKRRVKSPGSGHVKQKAVKRPASMYSTGKRKENPIEDDLIFRVGTKGRNKGEFTNLQGVAASTNGKILIADSNNQCVQIFSNDGQFKSRFGIRGRSPGQLQRPTGVAVHPSGDIIIADYDNKWVSIFSSDGKFKTKIGSGKLMGPKGVSVDRNGHIIVVDNKACCVFIFQPNGKIVTRFGSRGNGDRQFAGPHFAAVNSNNEIIITDFHNHSVKVFNQEGEFMLKFGSNGEGNGQFNAPTGVAVDSNGNIIVADWGNSRIQVFDGSGSFLSYINTSADPLYGPQGLALTSDGHVVVADSGNHCFKVYRYLQ |
| binds | Tripartite motif-containing protein 2 (TRIM2), overexpressed in H322 cells (protein, UniProt Q9C040 1-744) MASEGTNIPSPVVRQIDKQFLICSICLERYKNPKVLPCLHTFCERCLQNYIPAHSLTLSCPVCRQTSILPEKGVAALQNNFFITNLMDVLQRTPGSNAEESSILETVTAVAAGKPLSCPNHDGNVMEFYCQSCETAMCRECTEGEHAEHPTVPLKDVVEQHKASLQVQLDAVNKRLPEIDSALQFISEIIHQLTNQKASIVDDIHSTFDELQKTLNVRKSVLLMELEVNYGLKHKVLQSQLDTLLQGQESIKSCSNFTAQALNHGTETEVLLVKKQMSEKLNELADQDFPLHPRENDQLDFIVETEGLKKSIHNLGTILTTNAVASETVATGEGLRQTIIGQPMSVTITTKDKDGELCKTGNAYLTAELSTPDGSVADGEILDNKNGTYEFLYTVQKEGDFTLSLRLYDQHIRGSPFKLKVIRSADVSPTTEGVKRRVKSPGSGHVKQKAVKRPASMYSTGKRKENPIEDDLIFRVGTKGRNKGEFTNLQGVAASTNGKILIADSNNQCVQIFSNDGQFKSRFGIRGRSPGQLQRPTGVAVHPSGDIIIADYDNKWVSIFSSDGKFKTKIGSGKLMGPKGVSVDRNGHIIVVDNKACCVFIFQPNGKIVTRFGSRGNGDRQFAGPHFAAVNSNNEIIITDFHNHSVKVFNQEGEFMLKFGSNGEGNGQFNAPTGVAVDSNGNIIVADWGNSRIQVFDGSGSFLSYINTSADPLYGPQGLALTSDGHVVVADSGNHCFKVYRYLQ |
